Not every detail of the peptide structures is certain; ends, links or a residue may be inferred.
Tested on: Male BALB/c HSD mice
Test: Survival of mice rendered hepatotoxic by LPS/GAL treatment (model for septic shock / hepatic failure)
Type: in vivo
Experimental: Hepatic failure was induced in mice by intraperitoneal injections of a mixture of lipopolysaccharide (LPS) (100 µg/kg) and D-galactosamine (GAL) (700 mg/kg) to form LPS/GAL. LPS is a bacterial endotoxin that is a major stimulus for production of many cytokines, particularly tumor necrosis factor (TNF), thought to be involved in liver injury. GAL is an amino sugar that sensitizes hepatocytes by depleting the base uridine and thus preventing hepatic transcription, and sensitizes animals to normally innocuous amounts of endotoxin or TNF. The LPS/GAL treatment induces fulminate hepatic and multiorgan failure, and serves as a model for septic shock. The major effects of LPS/GAL are elicited by the inflammatory cytokine TNF-α. Hepatocytes sensitized to TNF-α then undergo apoptosis or programmed cell death in response to inflammatory processes.
Mice were treated with deltorphin and were subsequently rendered hepatotoxic by LPS/GAL treatment. An emulsion of deltorphin I SEQ ID NO:1 (Tyr-D-Ala-Phe-Asp-Val-Val-Gly-NH2) was prepared at a concentration of 80 µg/200 µl in sterile phosphate buffered saline (PBS). An emulsion of DADLE (Tyr-D-Ala-Gly-Phe-D-Leu-enkephalin) was also prepared at a concentration of 80 µg/200 µl in sterile PBS. Male BALB/c HSD mice were treated by intraperitoneal injections according to the following protocol. Control mice (n = 7) received only LPS/GAL (280 µl) at 6.5 h. Deltorphin I SEQ ID NO:1 treated mice (n = 15) received injections of 4 mg/kg deltorphin I SEQ ID NO:1 at 0 h, 2 h, 4 h, 6 h and 7.5 h and received an LPS/GAL injection at 6.5 h. DADLE treated mice (n = 15) received 4 mg/kg DADLE at 0 h, 2 h, 4 h, 6 h and 7.5 h and received an LPS/GAL injection at 6.5 h.
Both control and treated mice were monitored at 15 h, 20 h, 40 h and 65 h after the last injection. TABLE

[1] = n = 15, 4 mg/kg intraperitoneal at 0 h, 2 h, 4 h, 6 h and 7.5 h, LPS/GAL at 6.5 h, 15 h after the last injection
[2] = n = 15, 4 mg/kg intraperitoneal at 0 h, 2 h, 4 h, 6 h and 7.5 h, LPS/GAL at 6.5 h, 20 h after the last injection
[3] = n = 15, 4 mg/kg intraperitoneal at 0 h, 2 h, 4 h, 6 h and 7.5 h, LPS/GAL at 6.5 h, 40 h after the last injection
[4] = n = 15, 4 mg/kg intraperitoneal at 0 h, 2 h, 4 h, 6 h and 7.5 h, LPS/GAL at 6.5 h, 65 h after the last injection

Compound: CC(C)[C@H](NC(=O)[C@H](CC(=O)O)NC(=O)[C@H](Cc1ccccc1)NC(=O)[C@@H](C)NC(=O)[C@@H](N)Cc1ccc(O)cc1)C(=O)N[C@H](C(=O)NCC(N)=O)C(C)C [Deltorphin I SEQ I NO:1, Tyr-D-Ala-Phe-Asp-Val-Val-Gly-NH2]
- survival time (mice made septic by LPS/GAL treatment, compared to mice receiving LPS/GAL only): markedly increased
- SURVIVAL 15 Hours (number of mice) [1]: 12
- SURVIVAL 15 Hours (percent) [1]: 80%
- SURVIVAL 20 Hours (number of mice) [2]: 11
- SURVIVAL 20 Hours (percent) [2]: 73%
- SURVIVAL 40 Hours (number of mice) [3]: 11
- SURVIVAL 40 Hours (percent) [3]: 73%
- SURVIVAL 65 Hours (number of mice) [4]: 11
- SURVIVAL 65 Hours (percent) [4]: 73%

From patent publication EP1073452B1, “USE OF […] TREATING CYTOKINE MEDIATED HEPATIC INJURY” (University of Kentucky Research Foundation, priority 1998, dated 2003)
